In experiment [1] the target is T1, paired immunoglobulin receptor B (PIR-B) (murine) (UniProt P97484).
T1 sequence (looked up): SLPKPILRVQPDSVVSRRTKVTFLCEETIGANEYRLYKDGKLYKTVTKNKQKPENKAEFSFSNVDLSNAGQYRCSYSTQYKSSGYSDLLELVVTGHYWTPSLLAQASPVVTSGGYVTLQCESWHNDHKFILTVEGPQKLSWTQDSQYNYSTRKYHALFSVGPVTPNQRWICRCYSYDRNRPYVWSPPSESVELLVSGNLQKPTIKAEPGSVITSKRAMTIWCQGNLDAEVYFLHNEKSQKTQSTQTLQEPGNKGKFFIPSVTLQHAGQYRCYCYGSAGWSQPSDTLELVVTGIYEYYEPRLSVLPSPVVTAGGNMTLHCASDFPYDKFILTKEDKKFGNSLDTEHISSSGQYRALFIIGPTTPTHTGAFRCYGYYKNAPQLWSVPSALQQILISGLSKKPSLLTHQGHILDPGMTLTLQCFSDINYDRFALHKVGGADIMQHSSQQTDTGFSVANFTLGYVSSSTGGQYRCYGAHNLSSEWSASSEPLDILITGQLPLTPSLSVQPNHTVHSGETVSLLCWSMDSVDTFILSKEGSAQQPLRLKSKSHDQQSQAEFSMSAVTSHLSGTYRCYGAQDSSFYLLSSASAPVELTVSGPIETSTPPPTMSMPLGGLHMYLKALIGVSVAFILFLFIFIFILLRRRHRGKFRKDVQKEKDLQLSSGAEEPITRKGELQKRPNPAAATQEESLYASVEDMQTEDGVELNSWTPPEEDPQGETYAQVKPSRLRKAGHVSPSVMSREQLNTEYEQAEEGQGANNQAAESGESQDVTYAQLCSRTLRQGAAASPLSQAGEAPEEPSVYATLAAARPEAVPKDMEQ
Description: flow cytometry, human CSP on Bw cells expressing PIR-B (FIG. 2c). For orientation: A flow cytometer gives signals particle by particle.

Chains of the proteins cited; added tags and fusions are not shown. Lines headed by an entry give the natural chain unless they say otherwise; changes in a name come on top. Residues count along the entry.
UniProt P01024: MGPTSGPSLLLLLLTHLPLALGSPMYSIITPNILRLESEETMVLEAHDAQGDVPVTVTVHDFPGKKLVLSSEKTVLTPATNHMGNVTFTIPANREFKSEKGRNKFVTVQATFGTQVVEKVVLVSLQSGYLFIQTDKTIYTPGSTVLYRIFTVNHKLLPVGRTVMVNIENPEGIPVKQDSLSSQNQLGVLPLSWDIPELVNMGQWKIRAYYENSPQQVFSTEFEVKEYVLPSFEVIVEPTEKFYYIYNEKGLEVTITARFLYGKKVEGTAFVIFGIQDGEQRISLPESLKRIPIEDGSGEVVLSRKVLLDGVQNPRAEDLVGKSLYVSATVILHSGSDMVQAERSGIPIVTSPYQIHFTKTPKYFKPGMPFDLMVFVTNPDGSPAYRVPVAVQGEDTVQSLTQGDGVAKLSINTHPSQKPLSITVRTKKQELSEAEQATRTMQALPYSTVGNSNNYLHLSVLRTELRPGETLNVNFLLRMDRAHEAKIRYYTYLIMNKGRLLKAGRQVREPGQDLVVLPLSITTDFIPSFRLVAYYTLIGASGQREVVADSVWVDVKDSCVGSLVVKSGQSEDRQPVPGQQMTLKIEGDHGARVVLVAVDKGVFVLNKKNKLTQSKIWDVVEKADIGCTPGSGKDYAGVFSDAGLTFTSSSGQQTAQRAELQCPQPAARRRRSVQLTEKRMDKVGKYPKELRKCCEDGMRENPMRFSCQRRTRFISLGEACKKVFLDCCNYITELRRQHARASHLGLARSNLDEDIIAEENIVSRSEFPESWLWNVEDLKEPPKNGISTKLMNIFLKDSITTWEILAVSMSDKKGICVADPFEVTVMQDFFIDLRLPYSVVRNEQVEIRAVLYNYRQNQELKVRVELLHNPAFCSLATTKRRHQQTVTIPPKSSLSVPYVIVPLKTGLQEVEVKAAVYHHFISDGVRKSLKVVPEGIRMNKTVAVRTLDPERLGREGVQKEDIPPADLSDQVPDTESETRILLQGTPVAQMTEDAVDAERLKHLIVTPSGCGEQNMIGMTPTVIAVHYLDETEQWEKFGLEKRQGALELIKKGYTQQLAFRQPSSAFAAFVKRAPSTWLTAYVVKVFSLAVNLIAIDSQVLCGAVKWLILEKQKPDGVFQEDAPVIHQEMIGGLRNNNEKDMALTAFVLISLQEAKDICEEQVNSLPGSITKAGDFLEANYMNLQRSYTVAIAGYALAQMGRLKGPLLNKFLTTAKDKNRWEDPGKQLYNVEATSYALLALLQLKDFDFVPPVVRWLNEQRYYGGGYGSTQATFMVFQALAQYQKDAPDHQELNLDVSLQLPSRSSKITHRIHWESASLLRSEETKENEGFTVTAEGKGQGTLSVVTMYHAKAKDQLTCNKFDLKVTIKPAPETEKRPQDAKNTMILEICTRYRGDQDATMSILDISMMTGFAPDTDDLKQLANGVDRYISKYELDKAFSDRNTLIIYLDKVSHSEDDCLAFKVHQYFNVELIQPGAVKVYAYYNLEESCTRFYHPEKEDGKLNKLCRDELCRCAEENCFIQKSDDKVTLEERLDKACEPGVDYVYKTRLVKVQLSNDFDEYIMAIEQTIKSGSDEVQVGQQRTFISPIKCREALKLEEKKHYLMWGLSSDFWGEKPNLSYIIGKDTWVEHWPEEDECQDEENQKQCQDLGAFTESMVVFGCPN
UniProt P17927, residues 42-1971: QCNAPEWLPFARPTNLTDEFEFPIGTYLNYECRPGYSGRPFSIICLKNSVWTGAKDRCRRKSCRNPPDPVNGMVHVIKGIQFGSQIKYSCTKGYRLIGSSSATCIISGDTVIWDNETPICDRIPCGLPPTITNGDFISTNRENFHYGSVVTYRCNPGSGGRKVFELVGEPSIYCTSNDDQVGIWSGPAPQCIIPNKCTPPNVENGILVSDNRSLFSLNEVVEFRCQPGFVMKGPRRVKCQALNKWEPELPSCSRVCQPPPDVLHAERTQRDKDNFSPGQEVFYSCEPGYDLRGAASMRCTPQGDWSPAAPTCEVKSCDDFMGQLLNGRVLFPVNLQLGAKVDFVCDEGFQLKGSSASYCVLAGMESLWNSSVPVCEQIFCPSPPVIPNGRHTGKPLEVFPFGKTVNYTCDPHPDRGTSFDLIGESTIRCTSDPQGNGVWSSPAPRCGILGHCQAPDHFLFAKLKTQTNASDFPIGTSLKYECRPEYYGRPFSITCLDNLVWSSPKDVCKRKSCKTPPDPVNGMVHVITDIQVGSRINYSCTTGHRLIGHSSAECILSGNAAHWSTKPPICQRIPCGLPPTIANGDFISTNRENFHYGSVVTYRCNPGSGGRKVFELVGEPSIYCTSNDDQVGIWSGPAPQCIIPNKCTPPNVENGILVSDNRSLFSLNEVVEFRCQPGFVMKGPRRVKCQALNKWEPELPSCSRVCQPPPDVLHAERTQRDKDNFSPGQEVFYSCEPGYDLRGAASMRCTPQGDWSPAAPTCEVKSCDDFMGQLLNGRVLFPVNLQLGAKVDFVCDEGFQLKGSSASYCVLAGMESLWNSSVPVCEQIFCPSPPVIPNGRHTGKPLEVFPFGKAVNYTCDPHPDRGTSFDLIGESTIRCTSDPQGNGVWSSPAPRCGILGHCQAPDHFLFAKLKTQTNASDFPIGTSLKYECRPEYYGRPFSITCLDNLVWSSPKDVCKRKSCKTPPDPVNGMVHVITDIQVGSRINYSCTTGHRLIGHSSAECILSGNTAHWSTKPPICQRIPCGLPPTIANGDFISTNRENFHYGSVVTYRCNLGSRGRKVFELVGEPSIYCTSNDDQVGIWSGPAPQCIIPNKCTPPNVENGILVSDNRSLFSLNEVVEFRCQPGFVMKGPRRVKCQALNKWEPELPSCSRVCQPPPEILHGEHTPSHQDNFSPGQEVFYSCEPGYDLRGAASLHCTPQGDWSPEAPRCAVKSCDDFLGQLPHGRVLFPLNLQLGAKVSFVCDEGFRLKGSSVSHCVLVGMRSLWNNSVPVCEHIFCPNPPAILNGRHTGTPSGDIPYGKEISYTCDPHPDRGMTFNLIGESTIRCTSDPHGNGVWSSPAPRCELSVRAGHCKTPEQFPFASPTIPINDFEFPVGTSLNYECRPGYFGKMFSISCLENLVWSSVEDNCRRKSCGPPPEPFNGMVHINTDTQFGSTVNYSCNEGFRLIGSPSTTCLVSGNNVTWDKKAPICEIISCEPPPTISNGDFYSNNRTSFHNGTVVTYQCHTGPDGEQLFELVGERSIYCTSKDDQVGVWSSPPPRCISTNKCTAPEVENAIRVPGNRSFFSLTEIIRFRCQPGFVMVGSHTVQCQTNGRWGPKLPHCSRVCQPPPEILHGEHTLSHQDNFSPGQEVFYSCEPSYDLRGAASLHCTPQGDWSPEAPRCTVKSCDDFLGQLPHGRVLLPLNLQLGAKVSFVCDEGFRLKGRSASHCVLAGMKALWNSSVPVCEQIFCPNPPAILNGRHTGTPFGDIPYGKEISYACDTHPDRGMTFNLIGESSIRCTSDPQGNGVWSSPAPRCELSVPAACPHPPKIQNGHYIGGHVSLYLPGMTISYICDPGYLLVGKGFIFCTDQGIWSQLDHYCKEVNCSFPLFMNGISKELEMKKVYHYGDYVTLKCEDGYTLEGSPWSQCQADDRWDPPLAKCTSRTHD

The target in experiment [2] is isolated human iC3b (ih-iC3b) (human) (UniProt P01024). Description: ELISA, plate-bound CSP (465 nM) probed with sCD35 (5 µg/ml) (FIG. 5d). A general note: In an ELISA, binding on a coated surface is turned into a signal by an enzyme label.
Experiment [3] concerns the target isolated human C3b (ih-C3b) (human) (UniProt P01024). The description is as above.

No constants are given. Whether binding was seen depends on the method and setting. Binding can be weak; no strength is given.

With “isolated human iC3b (ih-iC3b) (from UniProt P01024) (ligand)”, in experiment [1], the binding entry is listed as “binds”.
On to “soluble recombinant human CD35 extracellular domain (sCD35) (from UniProt P17927 42-1971) (receptor)”, for which the binding entry in experiment [2] and in experiment [3] was “binds” throughout.
In the case of “isolated human C3b (ih-C3b) (from UniProt P01024) (ligand)”, in experiment [1], the binding result is recorded as “binds”.
